# Source: PubChem BioAssay AID1487 (National Center for Advancing Translational Sciences (NCATS), 2009)
# Hit rate of the full screen: of about 200,000 compounds, about 25 (0.01%) were called active. The inconclusive results got no clear call from the source; some entries with a clear call stand among them for comparison. Calls follow the shape of the dose curve; as a rule, active = well fitted inhibition curve with a large enough effect in the signal ratio, with a control signal flat (not every such curve was filed as active); inconclusive = small, poorly fitted or top-dose-only effect, or effect the other way, or a change in a side signal; inactive = flat fitted curve, though single readings scatter; the % refers to the signal ratio. A potency beside an inconclusive call is a rough fit, not a confirmed value.
# Test: qHTS Assay for Modulators of Lamin A Splicing
# Details: HeLa LMNA splicing GFP/RFP minigene ratio, 48 h; ratio change, negative = inhibition: at 46.1 µM (top of the series) unless noted
# In short: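 S3 HeLa cells stably expressing lamin A-EGFP splicing minigene plus DsRed2, 600 cells/well, 48 h compound exposure at 37C. Laser-scanning cytometry; analysed as GFP (500-530 nm)/RFP (575-640 nm) total intensity ratio; 0.5% DMSO vehicle.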
# % is scaled to controls: 0 for no effect and ±100 for the full control effect; potency is read from the fitted curve at half-maximal effect.
Compound,"ratio change, negative = inhibition",Potency
C(=N\n1cnnc1)/c1cccc(Oc2ccccc2)c1,inactive: -6.43%,–
O=C(Nc1ccc(F)cc1)c1ccc(-n2cncn2)c([N+](=O)[O-])c1,inconclusive: 25.3% [at 46 µM],–
COc1ccc(CC(=O)OCC(=O)Nc2cccc(Cl)c2)cc1,inactive: 5.46% [at 46 µM],–
COc1ccc(NC(=O)NN2CCOCC2)cc1OC,inconclusive: -4.99% [at 46 µM],–
Cc1c(/C=N/Nc2ccc(F)cc2)c(O)n(C)c(=O)c1C#N,inconclusive: -6.18% [at 46 µM],–
O=[N+]([O-])c1cc2oc3c(c2c(C=NCc2ccccc2)c1O)CCCC3,inconclusive: -0.525%,–
CC(C)N=C1NN=C(c2ccc(Cl)c(Cl)c2)CS1,inconclusive: 22.1% [at 46 µM],–
COc1ccccc1Cn1c(/C=C/c2ccccc2)nc2ccccc21,inconclusive: -40.2%,–
O=C(CSc1nnc(-c2ccc(Cl)cc2)n1-c1ccccc1)N/N=C/c1ccccc1C(=O)O,inconclusive: -36.2% [at 46 µM],–
CN=C1C([N+](=O)[O-])=CC=C2C1=NC1(CCCCC1)N2O,inactive: 5.53%,–
Cc1ccccc1NC(=O)c1sc2nc3n(c(=O)c2c1C)CCC3,inactive: -3.01% [at 46 µM],–
CC(=O)OC1c2c(ccc3ccc(=O)oc23)OC(C)(C)C1OC(=O)CC(C)C (centres undefined),inconclusive: 19.8%,–
CCCn1c(SCC(=O)Nc2ccccc2N2CCCCC2)nc2c1c(=O)n(C)c(=O)n2C,inactive: -6.85%,–
COc1ccnc(Oc2ccccc2)c1C(=O)N/C=N/OCc1ccc(F)cc1Cl,inconclusive: -21.6%,–
C=CCn1c(N2CCOCC2)nc2c1c(=O)[nH]c(=O)n2C,inconclusive: 13.1% [at 46 µM],–
O=C(COC(=O)c1cc(=O)[nH]c2ccccc12)Nc1nc(-c2ccccc2)cs1,inconclusive: -1.55% [at 46 µM],–
Cc1cc(C(=O)Nc2cc(C)n(Cc3ccc(Cl)cc3)n2)no1,–,"inconclusive: 35.5 µM [fluorescent, single point]"
COc1ccc(/C=N/NC(=O)c2nn(-c3ccccc3)c(=O)c3c(N)scc23)cc1,inactive: -4.65%,–
CSc1nnc2ccc(-c3cccs3)nn12,inconclusive: -34.3% [at 46 µM],–
COCCn1c(C23CC4CC(CC(C4)C2)C3)n[nH]c1=S,inactive: -1.43%,–
Cn1ncc([N+](=O)[O-])c1C(=O)Nc1ccc(-c2nc3ccccc3[nH]2)cc1,inactive: 2.47%,–

Compound,"ratio change, negative = inhibition",Potency
Cn1c(NC(=O)c2ccccc2)cc(=O)n(C)c1=O,inactive: -4.88%,–
O=C(CCCN1CCC(C(=O)c2ccc(F)cc2)CC1)c1ccc(F)cc1,inconclusive: -40.4%,–
CCCC(c1nnnn1CS(=O)(=O)c1ccc(C)cc1)N1CCN(CC)CC1 (centres undefined),inconclusive: -13.9% [at 46 µM],–
Cc1cc(C)nc(NC(N)=NCCc2c[nH]c3ccccc23)n1,inconclusive: -19.4% [at 46 µM],–
COC(=O)C1=C(C(=O)OC)[C@@H]2N(C)c3ccc(OC)cc3[C@@]23C[C@@H](C(=O)OC)N(S(=O)(=O)c2ccc(C(F)(F)F)cc2)C3=N1,inconclusive: 7.4% [at 9.22 µM],–
COc1cccc(Nc2ncc3nc(C)c(=O)n(-c4ccccc4)c3n2)c1,inconclusive: -25.2%,–
Cc1cc(NC(=O)CSc2nnc(-c3ccc(Br)o3)n2Cc2ccccc2)no1,inconclusive: 17.4%,–
CCOc1ccc(CNC(=O)CCCc2cn(C)c3ccccc23)cc1OC,inconclusive: -23.3% [at 46 µM],–
CCOC(=O)N1CCN(c2c(-c3ccc(C)c(C)c3)c(=O)c2=O)CC1,inactive: 2.13%,–
N#C/C(=C\c1cc([N+](=O)[O-])ccc1Cl)C(N)=O,inconclusive: -19.4% [at 46 µM],–
CC(C)(C)NC(=O)CSc1nncn1NCc1c(Cl)cccc1Cl,inactive: -12.8%,–
Cc1sc2ncnc(SCC#N)c2c1C,inconclusive: 8.88%,–
Cc1nn(-c2ccccc2)cc1C(=S)Nc1ccccc1,–,"inconclusive: 35.5 µM [fluorescent, single point]"
Cc1cn2c(=O)cc(COC(=O)c3cccc(NC(=O)c4ccccc4C)c3)nc2s1,inconclusive: 7.3% [at 46 µM],–
O=C(CSCc1cnn(-c2ccccc2)c1-n1cccc1)NCc1ccccn1,inactive: 7.15% [at 46 µM],–
CCOC(=O)c1c(C)[nH]c(C)c1S(=O)(=O)N1CCN(c2cccc(C(F)(F)F)c2)CC1,inactive: -4.9% [at 46 µM],–
Cc1ccc(-n2cccc2/C=C2\C(=N)N3N=C(c4ccco4)SC3=NC2=O)cc1,inconclusive: 3.67% [at 9.22 µM],–
O=C(NCc1ccco1)c1ccc(CS(=O)(=O)Cc2ccc(Cl)cc2)o1,inconclusive: 2.82%,–
CCOc1ccc(OCCN2CCCCC2)cc1,inactive: 10.6%,–
COCCN(Cc1nc(-c2ccc(C(F)(F)F)cc2)no1)C(C)C,inconclusive: 0.698% [at 46 µM],–
C/C(=N\NC(=O)OC(C)(C)C)c1ccc(-n2ccnc2)cc1,inconclusive: 10.8% [at 46 µM],–

Compound,"ratio change, negative = inhibition",Potency
CCCCCCc1ccc(O)cc1O,inconclusive: -27.6%,–
O=C(c1nsc(Cl)c1Cl)N1CCCCC1,inconclusive: 5.97%,–
CC[C@@H](C)[C@H](NC(=O)C1CCN(C(=O)[C@@H](NS(=O)(=O)c2ccc(C)cc2)C(C)C)CC1)C(=O)O,inconclusive: 41.6%,–
COCCNC(=O)/C=C/c1c(Cl)cccc1Cl,inactive: 5.37%,–
CC1CCCCN1C(=O)c1ccc(C(=O)N2CCCCC2C)cc1 (centres undefined),inconclusive: 4.2%,–
COc1ccc(Nc2nnc(SCc3cc([N+](=O)[O-])cc4c3OCOC4)s2)cc1,inactive: 3.73%,–
CCCN(CCC)S(=O)(=O)c1ccc(C(=O)Nc2sc3c(c2C(=O)OC)CCN(CC)C3)cc1,inconclusive: -5.02% [at 46 µM],–
O=C(CN1CC[n+]2c(-c3cccs3)csc21)c1ccc(Br)cc1,–,"inconclusive: 35.5 µM [falling, single point]"
COc1cc(CN2CCCC(C(=O)c3ccc4c5c(cccc35)CC4)C2)cc(OC)c1O (centres undefined),–,"inconclusive: 25.1 µM [inhibitor, single point]"
CC(C)C(=O)N1CCN(c2nc(-c3ccc(Cl)cc3)cs2)CC1,inconclusive: 17.8% [at 46 µM],–
Cc1nnc(SCC(=O)Nc2nccs2)n(N)c1=O,inconclusive: 9.87% [at 46 µM],–
Cc1c(Cl)cccc1NC(=S)NCCC(c1ccccc1)c1ccccc1,inconclusive: -58.1%,–
c1coc(-c2nc3n(n2)C2(CCCCC2)[C@@H]2CCCC[C@@H]2N3)c1,inactive: 17.8% [at 46 µM],–
CC(C)(C)n1nnnc1C(c1cccs1)N1CCCc2ccccc21 (centres undefined),inconclusive: 11.6%,–
CN(C(=O)CSc1nnc(-c2ccccc2F)o1)C1CCCCC1,inconclusive: 18.7% [at 46 µM],–
Cc1ccc(-c2cc(=O)c3ccccc3[nH]2)cc1,inconclusive: -28.4%,–
O=C(/C=C/Nc1ccccc1Br)c1ccccn1,inconclusive: 6.64%,–
COc1cc(/C=C2/C(=O)CNC2=O)ccc1O,inconclusive: 92.1% [at 46 µM],–
COC(=O)C1CCN(S(=O)(=O)c2ccc(NC(C)=O)cc2)CC1,inactive: 7.19%,–
c1ccc2oc(-c3ccc(Nc4nc(N5CCCCC5)nc(N5CCOCC5)n4)cc3)nc2c1,inconclusive: 6.12%,–
COc1cc(NC(=O)Nc2cccc(-c3noc(C)n3)c2)cc(OC)c1OC,inconclusive: -14.2% [at 46 µM],–

Compound,"ratio change, negative = inhibition",Potency
Cc1ccccc1CNCc1cccnc1,inactive: -11.6%,–
CSC1=NCCN1C(=O)c1ccc2c(c1)OCO2,inactive: 2.3%,–
COC(=O)[C@@H]1[C@H]2C[C@H]3c4[nH]c5ccccc5c4CCN3C[C@@H]2CC[C@@H]1O,inconclusive: 4.31%,–
COc1ccc(N(C(=O)c2ccccc2)S(=O)(=O)c2cccs2)cc1,inconclusive: 27.1% [at 46 µM],–
O=C1Nc2ccc(Cl)cc2C(C#CC2CC2)(C(F)(F)F)O1 (centres undefined),inconclusive: 5.76%,–
CN(C(=O)COc1nnc(-c2cccs2)c(-c2cccs2)n1)c1ccccc1,inconclusive: 16.8%,–
O=C(Nc1ccccc1)Nc1ccc(F)c([N+](=O)[O-])c1,–,"inconclusive: 35.5 µM [fluorescent, single point]"
CCOC(=O)N1CCN(C(=O)c2cc(OCC)c(OCC)c(OCC)c2)CC1,inconclusive: 32.9% [at 46 µM],–
Cn1c(=O)cc(SCC(=O)N2CCCC2)c2ccc(Cl)cc21,inactive: -10.1%,–
Cc1nn(C)c2c1c(-c1ccccc1)cc(=O)n2CC(=O)Nc1ccccc1C(F)(F)F,inconclusive: 3.07% [at 46 µM],–
Cc1ccc(OCC(=O)Nc2ccc3nc(SCC(=O)N4CCOCC4)sc3c2)cc1,inconclusive: -5.5% [at 46 µM],–
Cc1ccc(C(=O)N2CCN(c3ccc(NC(=O)c4ccc(Br)o4)cc3)CC2)cc1,inconclusive: -30.6%,–
Cc1cccc(OCc2nnc(SCC(=O)c3ccccc3)o2)c1,inconclusive: -0.267%,–
COCCCN=CC1=C(O)CC(C)(C)CC1=O,inactive: 17.5%,–
Cc1ccc(/C=N/NC(=O)c2ccccc2OCc2ccc(F)cc2)o1,inconclusive: -14.1%,–
CC(C)(C)NC(=O)c1ccc2c(c1)CCO2,inconclusive: 16.1% [at 46 µM],–
COc1ccc(C2(C(=O)NCc3ccccc3Cl)CCOCC2)cc1OC,inconclusive: 21.4% [at 46 µM],–
CN(C)c1ccc(NC2=C(Cl)C(=O)c3ccccc3C2=O)cc1,–,"inconclusive: 35.5 µM [cytotoxic, single point]"
Cc1cc[n+](C2=C([O-])c3ccccc3C(=O)/C2=N\S(=O)(=O)c2cccs2)cc1C,inconclusive: 13.5%,–
CCn1ncc(/C=C2/SC(=S)NC2=O)c1C,inconclusive: 8.84%,–
CCN(CC(=O)NC(C)(C)C)Cc1nc2c(Br)cc(Br)cc2c(=O)[nH]1,inconclusive: 15.7% [at 46 µM],–
